# Experimental data as given in the supplement of paper PMC12823440, “Inhibitors supercharge kinase turnover through native proteolytic circuits” (Nature, 2025).
# Amino acid sequences for entries named in this document (tags omitted). A change or cut given only in a name is not applied to a line headed by its entry.
# UniProt P36888, whole entry: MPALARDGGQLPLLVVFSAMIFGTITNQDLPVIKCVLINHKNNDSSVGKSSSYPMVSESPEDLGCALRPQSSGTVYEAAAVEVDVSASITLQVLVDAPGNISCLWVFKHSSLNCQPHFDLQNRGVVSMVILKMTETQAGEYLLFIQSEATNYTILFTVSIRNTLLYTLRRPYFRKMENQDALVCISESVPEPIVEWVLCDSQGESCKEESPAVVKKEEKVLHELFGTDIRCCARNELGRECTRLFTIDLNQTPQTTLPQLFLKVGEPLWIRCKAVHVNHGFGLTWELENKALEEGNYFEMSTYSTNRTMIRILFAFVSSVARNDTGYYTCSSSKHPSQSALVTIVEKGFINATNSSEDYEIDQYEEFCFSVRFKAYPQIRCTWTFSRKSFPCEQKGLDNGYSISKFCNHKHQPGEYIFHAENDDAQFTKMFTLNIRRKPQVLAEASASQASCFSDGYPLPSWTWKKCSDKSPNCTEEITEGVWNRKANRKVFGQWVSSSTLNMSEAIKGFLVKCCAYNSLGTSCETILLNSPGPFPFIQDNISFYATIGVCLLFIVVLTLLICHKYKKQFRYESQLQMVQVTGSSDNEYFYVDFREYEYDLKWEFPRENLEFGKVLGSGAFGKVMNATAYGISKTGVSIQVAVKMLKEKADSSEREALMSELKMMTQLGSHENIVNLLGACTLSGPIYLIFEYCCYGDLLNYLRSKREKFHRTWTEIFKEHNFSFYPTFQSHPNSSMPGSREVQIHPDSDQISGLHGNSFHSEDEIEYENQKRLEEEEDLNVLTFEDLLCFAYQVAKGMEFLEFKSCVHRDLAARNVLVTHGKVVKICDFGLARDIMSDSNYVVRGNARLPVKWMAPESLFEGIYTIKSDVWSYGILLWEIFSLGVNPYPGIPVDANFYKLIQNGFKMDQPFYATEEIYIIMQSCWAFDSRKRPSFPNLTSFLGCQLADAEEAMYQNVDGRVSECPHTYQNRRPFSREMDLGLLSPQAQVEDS
# UniProt O15530: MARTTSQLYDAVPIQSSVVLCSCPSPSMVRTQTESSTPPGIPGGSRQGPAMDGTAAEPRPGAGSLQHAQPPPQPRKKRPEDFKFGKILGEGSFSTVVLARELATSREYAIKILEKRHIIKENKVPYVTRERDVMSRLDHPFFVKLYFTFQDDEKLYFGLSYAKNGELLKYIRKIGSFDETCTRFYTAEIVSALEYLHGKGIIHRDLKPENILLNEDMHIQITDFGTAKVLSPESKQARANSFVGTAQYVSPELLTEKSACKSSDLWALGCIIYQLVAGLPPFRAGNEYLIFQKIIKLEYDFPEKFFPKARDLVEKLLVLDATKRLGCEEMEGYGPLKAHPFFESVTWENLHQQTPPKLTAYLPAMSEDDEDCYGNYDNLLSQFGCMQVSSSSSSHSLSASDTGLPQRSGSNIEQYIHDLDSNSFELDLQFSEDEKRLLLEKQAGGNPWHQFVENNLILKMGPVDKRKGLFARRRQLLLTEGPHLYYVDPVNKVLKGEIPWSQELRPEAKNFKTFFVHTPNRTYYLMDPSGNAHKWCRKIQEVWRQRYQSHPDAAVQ
# UniProt P49137, whole entry, looked up: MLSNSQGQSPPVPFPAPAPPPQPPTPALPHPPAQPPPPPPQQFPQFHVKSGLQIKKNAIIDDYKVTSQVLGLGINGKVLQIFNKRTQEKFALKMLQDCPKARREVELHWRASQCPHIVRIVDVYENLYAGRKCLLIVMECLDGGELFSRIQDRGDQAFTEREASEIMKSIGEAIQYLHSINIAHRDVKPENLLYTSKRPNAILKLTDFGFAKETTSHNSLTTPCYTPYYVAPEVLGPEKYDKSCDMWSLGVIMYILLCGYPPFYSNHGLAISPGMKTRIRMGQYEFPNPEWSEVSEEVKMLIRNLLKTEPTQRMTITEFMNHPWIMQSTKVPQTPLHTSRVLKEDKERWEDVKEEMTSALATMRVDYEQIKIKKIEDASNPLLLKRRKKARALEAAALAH
# UniProt P06239: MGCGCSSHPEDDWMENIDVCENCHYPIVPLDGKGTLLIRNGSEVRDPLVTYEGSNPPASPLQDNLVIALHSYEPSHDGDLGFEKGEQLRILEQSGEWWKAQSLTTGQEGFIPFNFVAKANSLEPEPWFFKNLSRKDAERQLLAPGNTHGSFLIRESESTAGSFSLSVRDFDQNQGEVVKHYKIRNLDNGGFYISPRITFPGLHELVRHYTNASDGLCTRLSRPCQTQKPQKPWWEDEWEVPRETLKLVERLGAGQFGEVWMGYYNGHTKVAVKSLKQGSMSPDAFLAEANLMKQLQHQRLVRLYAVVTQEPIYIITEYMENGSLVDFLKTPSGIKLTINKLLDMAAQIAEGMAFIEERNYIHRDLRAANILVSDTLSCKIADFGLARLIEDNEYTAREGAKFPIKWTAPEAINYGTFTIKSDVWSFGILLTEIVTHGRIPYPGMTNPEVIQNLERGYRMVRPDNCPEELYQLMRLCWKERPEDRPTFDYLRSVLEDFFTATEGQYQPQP
# UniProt Q15418, whole entry: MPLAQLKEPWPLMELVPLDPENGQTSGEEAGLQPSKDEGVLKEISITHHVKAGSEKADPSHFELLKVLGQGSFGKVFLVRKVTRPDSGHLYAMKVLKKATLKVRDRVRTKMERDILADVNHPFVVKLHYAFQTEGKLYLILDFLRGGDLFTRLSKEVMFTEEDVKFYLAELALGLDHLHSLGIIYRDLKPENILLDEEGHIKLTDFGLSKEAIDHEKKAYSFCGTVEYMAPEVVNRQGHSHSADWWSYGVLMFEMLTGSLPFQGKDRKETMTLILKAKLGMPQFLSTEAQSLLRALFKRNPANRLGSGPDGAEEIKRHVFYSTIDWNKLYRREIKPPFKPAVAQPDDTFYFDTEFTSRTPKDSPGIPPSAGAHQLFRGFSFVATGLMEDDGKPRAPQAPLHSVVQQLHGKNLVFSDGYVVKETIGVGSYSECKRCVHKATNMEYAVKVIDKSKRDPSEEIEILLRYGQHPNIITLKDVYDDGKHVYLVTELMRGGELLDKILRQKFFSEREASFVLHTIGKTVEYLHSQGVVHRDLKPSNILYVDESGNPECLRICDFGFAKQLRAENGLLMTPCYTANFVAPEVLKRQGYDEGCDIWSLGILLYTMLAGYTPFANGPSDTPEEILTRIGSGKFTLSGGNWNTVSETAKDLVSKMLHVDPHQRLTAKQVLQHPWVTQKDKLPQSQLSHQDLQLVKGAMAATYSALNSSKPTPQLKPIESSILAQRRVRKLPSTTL
# UniProt Q96KB5: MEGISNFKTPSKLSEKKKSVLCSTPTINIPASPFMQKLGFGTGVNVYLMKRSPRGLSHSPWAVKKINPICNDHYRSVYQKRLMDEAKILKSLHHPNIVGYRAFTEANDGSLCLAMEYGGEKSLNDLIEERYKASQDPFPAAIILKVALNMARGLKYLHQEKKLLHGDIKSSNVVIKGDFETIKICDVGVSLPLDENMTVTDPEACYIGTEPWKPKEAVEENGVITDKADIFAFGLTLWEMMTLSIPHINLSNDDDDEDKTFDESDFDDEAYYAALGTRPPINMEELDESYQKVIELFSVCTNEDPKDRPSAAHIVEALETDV
# UniProt P42356, whole entry, looked up: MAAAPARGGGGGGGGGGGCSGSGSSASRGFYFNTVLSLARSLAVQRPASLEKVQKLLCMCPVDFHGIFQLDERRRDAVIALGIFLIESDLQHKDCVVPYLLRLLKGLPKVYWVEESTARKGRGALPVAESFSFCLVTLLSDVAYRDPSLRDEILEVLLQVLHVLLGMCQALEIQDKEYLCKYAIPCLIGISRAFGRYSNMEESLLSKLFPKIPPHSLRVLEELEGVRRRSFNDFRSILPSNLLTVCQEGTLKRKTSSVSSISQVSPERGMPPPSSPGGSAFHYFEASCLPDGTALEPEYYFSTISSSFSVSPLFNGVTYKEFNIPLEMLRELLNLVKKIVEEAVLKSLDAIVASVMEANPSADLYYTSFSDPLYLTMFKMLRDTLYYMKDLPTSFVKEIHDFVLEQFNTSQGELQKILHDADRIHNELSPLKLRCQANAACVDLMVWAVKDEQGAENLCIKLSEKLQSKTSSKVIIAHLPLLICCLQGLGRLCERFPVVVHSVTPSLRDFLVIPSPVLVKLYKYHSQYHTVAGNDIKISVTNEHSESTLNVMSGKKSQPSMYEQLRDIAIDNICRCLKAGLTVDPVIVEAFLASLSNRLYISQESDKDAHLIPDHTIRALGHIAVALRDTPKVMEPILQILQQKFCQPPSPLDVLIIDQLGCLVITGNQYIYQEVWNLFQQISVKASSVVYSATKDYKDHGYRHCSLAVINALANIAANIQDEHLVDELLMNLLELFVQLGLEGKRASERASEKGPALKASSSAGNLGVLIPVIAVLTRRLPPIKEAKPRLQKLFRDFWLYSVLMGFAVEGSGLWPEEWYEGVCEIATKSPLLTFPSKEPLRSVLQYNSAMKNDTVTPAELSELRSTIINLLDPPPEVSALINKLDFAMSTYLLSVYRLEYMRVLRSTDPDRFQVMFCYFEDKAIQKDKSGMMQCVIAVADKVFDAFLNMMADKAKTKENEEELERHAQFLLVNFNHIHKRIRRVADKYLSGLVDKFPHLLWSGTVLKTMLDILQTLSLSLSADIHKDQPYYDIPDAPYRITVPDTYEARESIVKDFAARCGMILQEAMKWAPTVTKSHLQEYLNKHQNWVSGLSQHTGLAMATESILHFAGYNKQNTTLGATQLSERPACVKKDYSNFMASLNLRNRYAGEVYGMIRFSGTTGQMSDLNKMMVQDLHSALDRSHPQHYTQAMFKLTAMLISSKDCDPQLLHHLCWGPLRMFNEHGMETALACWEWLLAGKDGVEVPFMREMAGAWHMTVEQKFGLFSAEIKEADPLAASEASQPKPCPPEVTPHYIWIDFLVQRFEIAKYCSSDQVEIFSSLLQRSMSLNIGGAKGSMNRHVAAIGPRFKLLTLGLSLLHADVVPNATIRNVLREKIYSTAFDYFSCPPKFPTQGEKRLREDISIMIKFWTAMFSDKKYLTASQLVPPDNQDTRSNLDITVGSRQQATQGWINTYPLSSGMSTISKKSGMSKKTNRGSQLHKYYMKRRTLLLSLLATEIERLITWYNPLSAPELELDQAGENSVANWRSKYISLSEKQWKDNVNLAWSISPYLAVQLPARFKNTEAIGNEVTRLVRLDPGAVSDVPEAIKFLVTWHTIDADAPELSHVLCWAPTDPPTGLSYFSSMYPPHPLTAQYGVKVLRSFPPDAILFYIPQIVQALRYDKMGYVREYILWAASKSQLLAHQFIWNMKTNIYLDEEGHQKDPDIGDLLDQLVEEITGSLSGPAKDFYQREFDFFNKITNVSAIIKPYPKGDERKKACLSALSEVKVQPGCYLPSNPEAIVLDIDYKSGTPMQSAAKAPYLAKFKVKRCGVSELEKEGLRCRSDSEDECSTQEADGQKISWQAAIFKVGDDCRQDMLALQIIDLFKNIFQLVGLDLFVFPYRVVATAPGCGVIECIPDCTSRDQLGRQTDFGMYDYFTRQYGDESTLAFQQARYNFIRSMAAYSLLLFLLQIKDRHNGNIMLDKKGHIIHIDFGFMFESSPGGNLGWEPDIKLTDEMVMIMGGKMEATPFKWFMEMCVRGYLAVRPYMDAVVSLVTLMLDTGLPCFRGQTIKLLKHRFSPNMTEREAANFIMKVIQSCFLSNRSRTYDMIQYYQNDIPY
# UniProt Q9Y463, whole entry, looked up: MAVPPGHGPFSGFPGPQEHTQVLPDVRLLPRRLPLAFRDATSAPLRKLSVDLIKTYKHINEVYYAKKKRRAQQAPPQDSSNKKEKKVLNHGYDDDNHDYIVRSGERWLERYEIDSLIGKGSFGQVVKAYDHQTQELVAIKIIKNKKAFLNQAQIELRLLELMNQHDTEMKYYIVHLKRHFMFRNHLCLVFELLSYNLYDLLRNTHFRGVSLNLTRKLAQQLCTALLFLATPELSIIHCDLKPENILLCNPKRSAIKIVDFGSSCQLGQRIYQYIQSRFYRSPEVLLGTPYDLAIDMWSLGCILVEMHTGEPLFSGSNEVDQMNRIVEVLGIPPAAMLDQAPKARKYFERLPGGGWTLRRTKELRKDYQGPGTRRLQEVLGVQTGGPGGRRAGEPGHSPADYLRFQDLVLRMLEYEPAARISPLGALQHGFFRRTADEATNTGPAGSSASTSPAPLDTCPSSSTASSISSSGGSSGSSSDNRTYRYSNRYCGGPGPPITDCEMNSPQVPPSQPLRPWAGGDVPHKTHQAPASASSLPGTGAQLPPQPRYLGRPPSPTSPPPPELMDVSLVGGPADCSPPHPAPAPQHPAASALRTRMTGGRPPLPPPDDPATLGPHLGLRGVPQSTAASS
# This is one part of the list. Hit calls seldom repeat between salt and free forms of one compound.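 Kinases were expressed as nanoluciferase fusions in K562 cells and luminescence was read every 4 h between 2 and 18 h as percent of control, DMSO set to 100% and a positive control to 0%. A time point counts as decreased when the signal drops significantly (2 sigma). The hit call is the authors' own, does not follow from the count of time points alone, and its rule is not shown.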
# Tests used:
# Assay in all cases: number of time points (of 5) at which kinase-Nluc abundance scored as decreased, DMSO-normalised (count); higher = more persistent destabilization
# [1] = compound: NC(=O)c1c(OCc2c(F)cc(Br)cc2F)nsc1NC(=O)NCCCCN1CCCC1; details: 2.5 µM; K562; 2-18 h
# Capivasertib = compound: NC1(C(=O)N[C@@H](CCO)c2ccc(Cl)cc2)CCN(c2nc[nH]c3nccc2-3)CC1 [Capivasertib]; details: 10 µM; K562; 2-18 h
# Syk Inhibitor II = compound: NCCNc1ncc(C(N)=O)c(Nc2cccc(C(F)(F)F)c2)n1 [Syk Inhibitor II]; details: 10 µM; K562; 2-18 h
# [2] = compound: Nc1nc(Nc2ccc(S(N)(=O)=O)cc2)nn1C(=O)c1c(F)cccc1F; details: 2.5 µM; K562; 2-18 h
# Miransertib = compound: Nc1ncccc1-c1nc2ccc(-c3ccccc3)nc2n1-c1ccc(C2(N)CCC2)cc1 [Miransertib]; details: 10 µM; K562; 2-18 h
# [3] = compound: Nc1ncnc2c1c(-c1cnc3[nH]ccc3c1)nn2C1CCCC1; details: 2.5 µM; K562; 2-18 h
# [4] = compound: Nc1ncnc2n[nH]c(-c3ccc(Oc4ccccc4)cc3)c12 [Ibrutinib deacryloylpiperidine]; details: 10 µM; K562; 2-18 h
# [5] = compound: O=C(NCCCNc1nc(Nc2cccc(CN3CCOCC3)c2)ncc1C1CC1)C1CCC1; details: 10 µM; K562; 2-18 h
Target,number of time points [1],number of time points (Capivasertib),number of time points (Syk Inhibitor II),number of time points [2],number of time points (Miransertib),number of time points [3],number of time points [4],number of time points [5]
FLT3 (UniProt P36888),0,0,0,3,0,2,0,0
ZAP70 (UniProt P43403),0,0,0,0,0,0,0,0
DYRK2 (UniProt Q92630),0,0,0,0,4,4,1,0
ZAK (UniProt Q9NYL2),0,0,0,0,0,0,0,0
TEC (UniProt P42680),0,0,0,0,2,0,0,0
MAP2K2 (UniProt P36507),0,0,0,1,0,0,0,0
RIPK2 (UniProt O43353),0,0,0,0,1,4,0,0
PDK1 (UniProt Q15118),0,0,0,0,0,0,0,0
PDPK1 (UniProt O15530),0,0,0,0,2,4,0,0
EGFR_G719S_T790M (UniProt P00533),–,0,0,0,1,–,–,0
JAK1 (UniProt P23458),0,0,0,1,0,1,0,0
ERBB3 (UniProt P21860),0,0,0,0,3,1,0,0
EGFR_L718V (UniProt P00533),–,0,0,0,1,–,–,0
MAPK1 (UniProt P28482),0,0,0,0,0,0,0,0
MAPKAPK2 (UniProt P49137),0,0,0,0,0,0,0,0
PRKCA (UniProt P17252),0,0,0,0,0,0,0,0
RAF1_S257L (clone: RAF1_mut) (UniProt P04049),0,0,0,0,4,3,0,0
LCK (UniProt P06239),0,0,0,0,0,0,0,0
EGFR_T790M (UniProt P00533),–,0,0,0,0,–,–,0
RPS6KA1 (UniProt Q15418),0,0,0,0,0,0,0,0
PBK (UniProt Q96KB5),0,0,0,0,0,0,0,0
EGFR_L858R (UniProt P00533),–,0,0,0,2,–,–,0
PIK4CA (UniProt P42356),0,0,0,0,0,4,0,0
DYRK1B (UniProt Q9Y463),0,0,0,0,1,0,0,0
AKT1 (UniProt P31749),0,–,0,0,–,0,0,0
RIOK1 (UniProt Q9BRS2),0,0,0,0,0,0,0,0
